*1 amine or outer side, *2 acyl side, *3 side chain or, on linkers, in order; H or OH if unused. Where a SMILES comes first, the peptide text is derived from it. Bridges are numbered along the chain shown (N, C = ends). Roman numbers before positions name the chains, in order. [ ]: non-standard residue; d: D form. Actinocin(9to1) = Cc1c2oc3c(C)ccc(C(=O)[*:1])c3nc-2c(C(=O)[*:2])c(N)c1=O; NMeV = CN[C@H](C(=O)O)C(C)C; Sar = CNCC(=O)O
Test: In vitro retrodialysis recovery of microdialysis probes

Compound | in vitro retrodialysis recovery rate (100 ng/mL stock in 1% BSA Ringer, Probe 1) [%] | in vitro retrodialysis recovery rate (100 ng/mL stock in 1% BSA Ringer, Probe 2) [%] | in vitro retrodialysis recovery rate (100 ng/mL stock in 1% BSA Ringer, Probe 3) [%] | in vitro retrodialysis recovery rate (100 ng/mL stock in 1% BSA Ringer, Probe 4) [%] | in vitro retrodialysis recovery coefficient (recovery rate) (CMA7 1 mm PES probe, 55 kDa, 0.5 µL/min, 100 ng/mL stock in 1% BSA Ringer, mean of 4 probes) [%] | RD recovery rate, probe comparison (probe CAM7 (Cat.No. 8012411), polyethersulfone, MWCO 55kDa, n = 2) [%] | RD recovery rate, probe comparison (probe CMA8 (Cat.No. 8012201), polyacrylethersulfone, MWCO 20kDa, n = 1) [%] | RD recovery rate, probe comparison (probe MD-2211, cellulose, MWCO 35kDa, n = 5) [%] | in vitro retrodialysis coefficient (recovery rate) (actinomycin C used for probe calibration, 1 % BSA, mean of 2 probes) [%] | in vitro retrodialysis recovery rate (actinomycin C, 1 % BSA, Probe 1) [%] | in vitro retrodialysis recovery rate (actinomycin C, 1 % BSA, Probe 2) [%]
Cc1c2oc3c(C)ccc(C(=O)N[C@@H]4C(=O)N[C@H](C(C)C)C(=O)N5CCC[C@H]5C(=O)N(C)CC(=O)N(C)[C@@H](C(C)C)C(=O)O[C@@H]4C)c3nc-2c(C(=O)N[C@@H]2C(=O)N[C@H](C(C)C)C(=O)N3CCC[C@H]3C(=O)N(C)CC(=O)N(C)[C@@H](C(C)C)C(=O)O[C@@H]2C)c(N)c1=O [actinomycin D, Actinomycin D] (I: T[dV]P[Sar][NMeV] / II: T[dV]P[Sar][NMeV]; ester I:1-I:C, II:1-II:C; linker I:N-II:N via Actinocin(9to1)) | 87.0 | 77.1 | 89.5 | 84.5 | 84.5 ± 5.4 | 81.6 ± 9.9 | 88.83 | 79.4 ± 2.8 | – | – | –
Actinomycin C | – | – | – | – | – | – | – | – | 87.6 ± 0.5 | 87.9 | 87.2
